Patent US7420090B2 (priority 2002, dated 2008)
Some of these results come from one statement about several compounds together.

Experiments:
Plasmopara viticola = type: in vivo; conditions: 200 ppm
Phytophthora infestans = type: in vivo; conditions: 200 ppm; tomato leaf disks; assessed four days after inoculation
Pythium ultimum = type: cell-based; conditions: 20 ppm
[1] = system: Erysiphe graminis f.sp. hordei; type: in vivo; conditions: 200 ppm
[2] = system: Erysiphe graminis f.sp. tritici; type: in vivo; conditions: 200 ppm

| Structure (SMILES) | control of fungal infection (preventive fungicidal activity) (Plasmopara viticola) | control of fungal infection (preventive fungicidal activity) (Phytophthora infestans) | control of fungal infection (inhibition of growth) (Pythium ultimum) | control of fungal infection (preventive fungicidal activity) [1] | control of fungal infection (preventive fungicidal activity) [2] |
| --- | --- | --- | --- | --- | --- |
| CCC(Oc1cc(Cl)cc(Cl)c1)C(=O)NC(C)(C)C#CCCO (stereo not shown) [4(1), 2-(3,5-dichlorophenoxy)-N-(1-hydroxymethyl-4-methylpent-2-yn-4-yl) butyramide] | more than 60% | more than 60% | more than 60% | more than 60% | – |
| CCC(Oc1cc(Cl)cc(Cl)c1)C(=O)NC(C)(C)C#CCCCS(C)(=O)=O (stereo not shown) [4(55), 2-(3,5-dichlorophenoxy)-N-(6-methyl-1-methylsulfonyl-hept-4-yn-6-yl) butyramide] | more than 60% | more than 60% | – | – | – |
| CCC(Oc1cc(Cl)cc(Cl)c1)C(=O)NC(C)(C)C#CCCC[S+](C)[O-] (stereo not shown) [4(54), 2-(3,5-dichlorophenoxy)-N-(6-methyl-1-methylsulphinyl-hept-4-yn-6-yl) butyramide] | more than 60% | more than 60% | more than 60% | – | – |
| CCC(Oc1cc(Cl)cc(Cl)c1)C(=O)NC(C)(C)C#CCCCCl (stereo not shown) [4(52), 2-(3,5-dichlorophenoxy)-N-(1-chloro-6-methylhept-4-yn-6-yl) butyramide] | more than 60% | – | – | – | – |
| CCC(Oc1cc(Cl)cc(Cl)c1)C(=O)NC(C)(C)C#CCCCC#N (stereo not shown) [4(41), 2-(3,5-dichlorophenoxy)-N-(1-cyano-6-methylhept-4-yn-6-yl) butyramide] | more than 60% | more than 60% | – | – | more than 60% |
| CCC(Oc1cc(Cl)cc(Cl)c1)C(=O)NC(C)(C)C#CCO[Si](C)(C)C(C)(C)C (stereo not shown) [4(21), 2-(3,5-dichlorophenoxy)-N-(1-tert-butyldimethylsilyloxy-4-methylpent-2-yn-4-yl) butyramide] | – | – | – | more than 60% | – |
| CCC(Oc1cc(Cl)cc(Cl)c1)C(=O)NC(C)(C)C#CCCCn1cncn1 (stereo not shown) [4(56), 2-(3,5-dichlorophenoxy)-N-(6-methyl-1-(1,2,4-triazol-1-yl)-hept-4-yn-6-yl) butyramide] | more than 60% | more than 60% | – | – | – |
| CCC(Oc1cc(Cl)cc(Cl)c1)C(=O)NC(C)(C)C#CCCCOC (stereo not shown) [4(57), 2-(3,5-dichlorophenoxy)-N-(1-methoxy-6-methylhept-4-yn-6-yl) butyramide] | more than 60% | more than 60% | more than 60% | – | more than 60% |
| CCC(Oc1cc(Cl)cc(Cl)c1)C(=O)NC(C)(C)C#CCCCSC (stereo not shown) [4(53), 2-(3,5-dichlorophenoxy)-N-(6-methyl-1-methylthio-hept-4-yn-6-yl) butyramide] | more than 60% | more than 60% | more than 60% | – | – |
| CCC(Oc1cc(Cl)cc(Cl)c1)C(=O)NC(C)(C)C#CCOC (stereo not shown) [4(11), 2-(3,5-dichlorophenoxy)-N-(1-methoxy-4-methylpent-2-yn-4-yl) butyramide] | more than 60% | more than 60% | more than 60% | more than 60% | more than 60% |
